Measured data: PubChem BioAssay AID1224826 (NIAID, 2016)
The whole screen tested about 17,000 reagents; shown is a part drawn at random. About 1,110 of all reagents (6.6%) count as active. 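Active means lowered or raised reporter signal; replicate intensities are raw and not normalised per plate.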 A number with no mark means an inactive call. Some reagents were tested in more than one well and are listed for each.

Aim: 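Genes that change LPS-induced Tnf promoter activity in mouse macrophages when knocked down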 (primary screen)
System: RAW264.7 G9 macrophages from mouse bearing reporters for p65 (GFP) and the Tnf promoter (mCherry)
Knock-down reagent: siRNA pool against mouse genes, 100 nM
Duration: 16 h of LPS stimulation, after 2 days of siRNA transfection
Conditions: bacterial lipopolysaccharide (Salmonella minnesota R595), 10 ng/ml
Read-out: 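Nuclear mCherry signal of the Tnf promoter reporter measured by imaging after background removal, scaled to each plate median and turned into robust z-scores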
Scale: Tnf reporter robust z-score: higher = stronger Tnf promoter reporter signal after LPS; Tnf reporter intensity: higher = stronger Tnf promoter reporter signal
Hit rule: 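a well counts as active at a score of -1.3 or below (Tlr4 knock-down control median) or above 3 (raised signal); controls and wells holding fewer than 50 cells are excluded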
Meaning of the calls: active = Tnf reporter clearly lowered or raised; inactive = no clear change in Tnf reporter

Target gene | Tnf reporter robust z-score | fewer than 50 cells in well | Tnf reporter intensity, replicate 1 | Tnf reporter intensity, replicate 2
Tead3 (GeneID 21678) | 0.23 | enough cells in well | 217 | 166
Phtf1 (GeneID 18685) | -1.04 | enough cells in well | 182 | 105
Or4c3d (GeneID 57272) | -0.52 | enough cells in well | 161 | 91.2
Fundc2b (GeneID 73297) | -0.6 | enough cells in well | 121 | 132
Bag6 (GeneID 224727) | -0.58 | enough cells in well | 180 | 151
Dtna (GeneID 13527) | -0.47 | enough cells in well | 218 | 150
Rapgef5 (GeneID 217944) | -0.33 | enough cells in well | 291 | 171
Etfbkmt (GeneID 320204) | -0.65 | enough cells in well | 137 | 41.3
Tbc1d10c (GeneID 108995) | – | fewer than 50 cells per well; well left out of calls | 284 | 103
Hccs (GeneID 15159) | -0.08 | enough cells in well | 234 | 164
Nup42 (GeneID 231042) | -0.72 | enough cells in well | 148 | 109
Pkn1 (GeneID 320795) | 1.56 | enough cells in well | 341 | 207
Zfp868 (GeneID 234362) | 0 | enough cells in well | 229 | 164
Ttc27 (GeneID 74196) | 0.44 | enough cells in well | 312 | 72.9
Pold4 (GeneID 69745) | – | fewer than 50 cells per well; well left out of calls | 55.2 | 64.8
Elovl3 (GeneID 12686) | -0.12 | enough cells in well | 198 | 98.3
Rngtt (GeneID 24018) | -1.04 | enough cells in well | 88 | 77.7
Dsg4 (GeneID 16769) | -1.46 (active) | enough cells in well | 68.2 | 75.9
Ppp1r9a (GeneID 243725) | 0.69 | enough cells in well | 319 | 224
Gdpd2 (GeneID 71584) | 0.08 | enough cells in well | 215 | 166
Adam22 (GeneID 11496) | -0.73 | enough cells in well | 123 | 132
AI987944 (GeneID 233168) | 0.48 | enough cells in well | 202 | 215
Klhl8 (GeneID 246293) | -0.12 | enough cells in well | 202 | 114
Zfp52 (GeneID 22710) | 1.43 | enough cells in well | 182 | 187
Il19 (GeneID 329244) | 0.19 | enough cells in well | 254 | 161
Zhx3 (GeneID 320799) | -0.71 | enough cells in well | 82.5 | 109
Pelp1 (GeneID 75273) | 0.21 | enough cells in well | 152 | 188
Melk (GeneID 17279) | -0.64 | enough cells in well | 139 | 140
Casp6 (GeneID 12368) | 1.05 | enough cells in well | 159 | 271
Kansl2 (GeneID 69612) | – | fewer than 50 cells per well; well left out of calls | 61.2 | 134
Eno4 (GeneID 226265) | 1.25 | enough cells in well | 238 | 221
Lce1c (GeneID 73719) | 0.65 | enough cells in well | 353 | 84.7
Lce1c (GeneID 73719) | 0.31 | enough cells in well | 335 | 72.3
Fcgr3 (GeneID 14131) | -0.39 | enough cells in well | 192 | 208
Ints12 (GeneID 71793) | -0.38 | enough cells in well | 247 | 62.1
Ubl5 (GeneID 66177) | -0.43 | enough cells in well | 181 | 214
Pcgf6 (GeneID 71041) | 0.72 | enough cells in well | 175 | 142
Akr1b10 (GeneID 67861) | 2.72 | enough cells in well | 291 | 74.3
Ccdc137 (GeneID 67291) | – | fewer than 50 cells per well; well left out of calls | 127 | 34.3
Or2b7 (GeneID 404335) | -0.18 | enough cells in well | 174 | 98.6
Dcaf11 (GeneID 28199) | -1.03 | enough cells in well | 64.3 | 101
Or4k36 (GeneID 258910) | 1.88 | enough cells in well | 310 | 187
Coprs (GeneID 66423) | 1.03 | enough cells in well | 256 | 120
Or4b1d (GeneID 18331) | 2.88 | enough cells in well | 356 | 237
Raver1 (GeneID 71766) | 0.25 | enough cells in well | 272 | 86.7
Mrpl14 (GeneID 68463) | -0.25 | enough cells in well | 255 | 70.6
Dll1 (GeneID 13388) | -0.79 | enough cells in well | 197 | 124
Ccdc186 (GeneID 213993) | -0.13 | enough cells in well | 128 | 185
Mxd4 (GeneID 17122) | -0.13 | enough cells in well | 259 | 191
Slc25a1 (GeneID 13358) | 0.56 | enough cells in well | 229 | 190
Iqcc (GeneID 230767) | 3.37 (active) | enough cells in well | 440 | 444
Vsig4 (GeneID 278180) | -0.06 | enough cells in well | 192 | 215
Tmem165 (GeneID 21982) | – | fewer than 50 cells per well; well left out of calls | 82.7 | 55.7
Astl (GeneID 215095) | 0.94 | enough cells in well | 206 | 247
Calhm6 (GeneID 215900) | 2.08 | enough cells in well | 311 | 239
Atad2 (GeneID 70472) | -0.39 | enough cells in well | 105 | 169
Mpzl3 (GeneID 319742) | -0.23 | enough cells in well | 144 | 156
Ncor1 (GeneID 20185) | 0.55 | enough cells in well | 349 | 213

8 entries from above, showing only “Tnf reporter intensity, replicate 2”:
Or4c3d (GeneID 57272): 91.2
Fundc2b (GeneID 73297): 132
Bag6 (GeneID 224727): 151
Dtna (GeneID 13527): 150
Rapgef5 (GeneID 217944): 171
Etfbkmt (GeneID 320204): 41.3
Tbc1d10c (GeneID 108995): 103
Hccs (GeneID 15159): 164
